Measured values as given in PMC6707942.
These are yes or no findings as the source states them, for the method shown. In cells and extracts the contact can be indirect. Sequences can lack the tags named with a protein.

The chains behind the UniProt entries cited, without tags or fusion partners.
UniProt Q03135: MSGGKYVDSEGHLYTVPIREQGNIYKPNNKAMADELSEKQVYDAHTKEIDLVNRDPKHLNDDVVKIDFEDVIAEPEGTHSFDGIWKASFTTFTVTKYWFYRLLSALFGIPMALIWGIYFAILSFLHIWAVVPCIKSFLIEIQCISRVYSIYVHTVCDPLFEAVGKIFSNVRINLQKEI

Target: caveolin-1 (human (endogenous in DU-145)) (UniProt Q03135)
Experiment: proximity ligation; DU-145 cells treated with His-MDA-7/IL-24 for 30 min, fixed; Duolink PLA kit; primary antibodies (anti-MDA-7/IL-24 and anti-clathrin or anti-caveolae) overnight at 4 °C; signals seen by fluorescence microscope; only the binder purified

- binding: no binding
B1: His-tagged recombinant MDA-7/IL-24 (ligand, UniProt Q13007 52-206)
chain: QEFHFGPCQVKGVVPQKLWEAFWAVKDTMQAQDNITSARLLQQEVLQNVSDAESCYLVHTLLEFYLKTVFKNYHNRTVEVRTLKSFSTLANNFVLIVSQLQPSQENEMFSIRDSAHRRFLLFRRAFKQLDVEAALTKALGEVDILLTWMQKFYKL
